# The inconclusive results got no clear call from the source; some entries with a clear call stand among them for comparison. A potency beside an inconclusive call is a rough fit, not a confirmed value. Calls of active or inactive are those of the source. Calls come from the whole dose curve; as a rule, active = well fitted cell-killing curve with a large enough effect; inconclusive = small, poorly fitted or top-dose-only effect, or effect the other way; inactive = no such curve, though single readings can be large or run the other way.
# How the values were obtained:
# [1] = Quantitative High-Throughput drug screen in 47 multiple myeloma cell lines against the NCATS MIPE library collection: LP1_DSMZ cell viability assay (AID 1918982); details: LP1 myeloma viability, CellTiter-Glo ATP luminescence, 48 h; viability (% of control): at 45.8 µM (top of the series); note: nearly all actives have a fitted effect of over 35% in size
# Summary of the method: (§1)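 MIPE 4.0 approved/investigational drugs; 500 cells/well; 48 h 37 °C humidified 5% CO2; CTG luminescence readout; DMSO = 100%, media = 0% viability.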
# [2] = Quantitative High-Throughput drug screen in 47 multiple myeloma cell lines against the NCATS MIPE library collection: L363_DSMZ cell viability assay (AID 1918984); details: L363 myeloma viability, CellTiter-Glo ATP luminescence, 48 h; viability (% of control): at 45.8 µM (top of the series); note: nearly all actives have a fitted effect of over 40% in size
# Summary of the method: as §1
# [3] = Quantitative High-Throughput drug screen in 47 multiple myeloma cell lines against the NCATS MIPE library collection: KMS34_JCRB cell viability assay (AID 1918985); details: KMS34 myeloma viability, CellTiter-Glo ATP luminescence, 48 h; viability, percent of control: at 45.8 µM (top of the series); note: nearly all actives have a fitted effect of over 40% in size
# Summary of the method: as §1
# [4] = Quantitative High-Throughput drug screen in 47 multiple myeloma cell lines against the NCATS MIPE library collection: OCIMY7_PLB cell viability assay (AID 1918987); details: OCI-MY7 myeloma viability, CellTiter-Glo ATP, 48 h; viability (% of DMSO): at 45.8 µM (top of the series); note: nearly all actives have a fitted effect of over 65% in size
# Summary of the method: as §1
# [5] = Quantitative High-Throughput drug screen in 47 multiple myeloma cell lines against the NCATS MIPE library collection: OCIMY5_PLB cell viability assay (AID 1918988); details: OCI-MY5 myeloma viability, ATP luminescence, 48 h; viability, % of control: at 45.8 µM (top of the series); note: nearly all actives have a fitted effect of over 65% in size;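 for viability, % of control: 100% = DMSO-treated wells and 0% = wells with media alone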
# Summary of the method: as §1
# [6] = Quantitative High-Throughput drug screen in 47 multiple myeloma cell lines against the NCATS MIPE library collection: SKMM1_PLB cell viability assay (AID 1919863); details: SKMM1 myeloma viability, CellTiter-Glo ATP, 48 h; viability: stronger effect = lower value; note: nearly all actives have a fitted effect of over 35% in size
# Summary of the method: as §1
# [7] = Quantitative High-Throughput drug screen in 47 multiple myeloma cell lines against the NCATS MIPE library collection: U266_ATCC cell viability assay (AID 1919864); note: nearly all actives have a fitted effect of over 35% in size
# Summary of the method: as §1
# [8] = Quantitative High-Throughput drug screen in 47 multiple myeloma cell lines against the NCATS MIPE library collection: OPM1_PLB cell viability assay (AID 1918989); details: CellTiter-Glo, 48 h; viability (% of control): at 45.8 µM (top of the series); note: nearly all actives have a fitted effect of over 40% in size
# Summary of the method: as §1
# Potency is the fitted concentration of half-maximal effect.
SMILES,Potency [1],Potency [2],Potency [3],Potency [4],Potency [5],Potency [6],viability [6],Potency [7],Potency [8]
CO[C@H]1O[C@@H]2O[C@@]3(C)CC[C@@H]4[C@@H](C)CC[C@@H]([C@H]1C)[C@@]24OO3,"inconclusive: 13.2 µM [cytotoxic, full curve, poor fit]","inconclusive: 0.0332 µM [cytotoxic, full curve, poor fit]","inconclusive: 0.0148 µM [cytotoxic, full curve, poor fit]",active: 0.743 µM,"inconclusive: 14.8 µM [cytotoxic, partial curve, poor fit]","inconclusive: 0.0019 µM [cytotoxic, full curve, poor fit]",–,–,–
CNC1CCCN(c2c(F)cc3c(=O)c(C(=O)O)cn(C4CC4)c3c2OC)C1 (configuration not stated),inactive,"inconclusive: 6.62 µM [cytotoxic, partial curve, poor fit]","inconclusive: 11.8 µM [cytotoxic, partial curve, poor fit]",active: 1.32 µM,"inconclusive: 18.7 µM [cytotoxic, partial curve, poor fit]",–,inactive: 118%,–,–
CC(=O)Oc1ccccc1C(=O)Nc1ncc([N+](=O)[O-])s1,active: 21.5 µM,–,–,–,–,active: 38.2 µM,–,"inconclusive: 24.1 µM [cytotoxic, partial curve]",–
O=C1c2c(O)cc(O)cc2O[C@H](c2cc(O)c(O)c(O)c2)[C@H]1O,active: 20.9 µM,"inconclusive: 6.62 µM [cytotoxic, partial curve, poor fit]",active: 11.8 µM,"inconclusive: 1.32 µM [cytotoxic, full curve, poor fit]",active: 13.2 µM,active: 20.9 µM,–,–,–
CCC[C@@H]1C[C@@H](C(=O)N[C@@H]([C@H]2O[C@H](SC)[C@H](O)[C@@H](O)[C@H]2O)[C@@H](C)O)N(C)C1,inactive,"inconclusive: 5.26 µM [cytotoxic, partial curve, poor fit]","inconclusive: 13.2 µM [cytotoxic, partial curve, poor fit]","inconclusive: 13.2 µM [cytotoxic, partial curve, poor fit]","inconclusive: 5.9 µM [cytotoxic, partial curve, poor fit]","inconclusive: 0.0332 µM [cytotoxic, full curve, poor fit]",–,inactive,inactive
OCCC#Cc1nc(-c2ccc(F)cc2)c(-c2ccncc2)n1CCCc1ccccc1,"inconclusive: 20.9 µM [cytotoxic, partial curve]",–,"inconclusive: 0.0526 µM [cytotoxic, full curve]",–,"inconclusive: 37.2 µM [cytotoxic, single point]",–,–,inactive,–
CC(C)C[C@@H](C(=O)N[C@H](C(=O)OC1CCCC1)c1ccccc1)[C@H](O)C(=O)NO,"inconclusive: 11.8 µM [cytotoxic, partial curve]","inconclusive: 8.33 µM [cytotoxic, partial curve, poor fit]","inconclusive: 9.35 µM [cytotoxic, partial curve]",–,–,active: 20.9 µM,–,–,–
COc1ccc(C2CC(c3ccccc3)=NN2c2ccc(S(N)(=O)=O)cc2)cc1 (configuration not stated),"inconclusive: 37.2 µM [cytotoxic, single point]",–,"inconclusive: 26.4 µM [cytotoxic, single point]","inconclusive: 20.9 µM [cytotoxic, partial curve, poor fit]","inconclusive: 1.32 µM [cytotoxic, full curve, poor fit]","inconclusive: 26.4 µM [cytotoxic, partial curve, poor fit]",–,–,–
O=C1c2ccccc2-[n+]2ccc3c([nH]c4ccccc43)c21,active: 2.35 µM,–,–,active: 0.264 µM,–,–,–,–,–
COc1ccc(-c2oc3cc(OC)ccc3c2C(=O)c2ccc(C#N)cc2)cc1,"inconclusive: 37.2 µM [cytotoxic, single point]",–,inactive,–,inactive,"inconclusive: 0.0187 µM [rising, full curve, poor fit]",–,–,inactive
Oc1ccc(C=Cc2cc(O)cc(O)c2)cc1,"inconclusive: 41.8 µM [cytotoxic, single point]","inconclusive: 0.372 µM [cytotoxic, full curve, poor fit]",–,"inconclusive: 9.35 µM [cytotoxic, full curve, poor fit]",–,"inconclusive: 20.9 µM [cytotoxic, partial curve, poor fit]",–,"inconclusive: 33.2 µM [cytotoxic, single point]",–
C=CC(=O)Nc1cc2c(Nc3ccc(F)c(Cl)c3)ncnc2cc1C#CC(C)(C)N1CCN(C)CC1,active: 9.35 µM,active: 1.48 µM,–,–,–,active: 13.2 µM,–,–,–
O=C(CCCN1CCC(O)(c2ccc(Cl)cc2)CC1)c1ccc(F)cc1,"inconclusive: 26.4 µM [cytotoxic, single point]","inconclusive: 26.4 µM [cytotoxic, single point]","inconclusive: 26.4 µM [cytotoxic, single point]","inconclusive: 37.2 µM [cytotoxic, single point]",–,–,inactive: 92.3%,–,"inconclusive: 26.4 µM [cytotoxic, single point]"
O=C(O)CCCCCC(=O)NN=C1CCCC1,inactive,"inconclusive: 0.0526 µM [rising, full curve, poor fit]","inconclusive: 0.0017 µM [rising, full curve, poor fit]","inconclusive: 0.0021 µM [rising, full curve, poor fit]","inconclusive: 0.0187 µM [cytotoxic, full curve, poor fit]",–,inactive: 119%,inactive,–
CC(O)=C(C#N)C(=O)Nc1ccc(C(F)(F)F)cc1,"inconclusive: 16.6 µM [cytotoxic, partial curve, poor fit]",inactive,–,"inconclusive: 33.2 µM [cytotoxic, partial curve, poor fit]",–,active: 18.7 µM,–,–,–
CNCC[C@H](Oc1cccc2ccccc12)c1cccs1,active: 18.7 µM,"inconclusive: 18.7 µM [cytotoxic, partial curve, poor fit]","inconclusive: 18.7 µM [cytotoxic, partial curve]",active: 0.59 µM,–,"inconclusive: 13.2 µM [cytotoxic, partial curve]",–,active: 2.35 µM,–
CC1(C)CC(O)CC(C)(C)N1[O],inactive,inactive,inconclusive: 0.001 µM,"inconclusive: 11.8 µM [rising, partial curve, poor fit]","inconclusive: 0.0148 µM [cytotoxic, full curve, poor fit]","inconclusive: 0.0074 µM [rising, full curve, poor fit]",–,"inconclusive: 0.0209 µM [rising, full curve]",–

# Whole records from above. Values in the order: Potency [1]	Potency [2]	Potency [3]	Potency [4]	Potency [5]	Potency [6]	viability [6]	Potency [7]	Potency [8]
# COc1ccc(C2CC(c3ccccc3)=NN2c2ccc(S(N)(=O)=O)cc2)cc1 (configuration not stated) as listed: inconclusive: 37.2 µM [cytotoxic, single point]	–	inconclusive: 26.4 µM [cytotoxic, single point]	inconclusive: 20.9 µM [cytotoxic, partial curve, poor fit]	inconclusive: 1.32 µM [cytotoxic, full curve, poor fit]	inconclusive: 26.4 µM [cytotoxic, partial curve, poor fit]	–	–	–
# CNCC[C@H](Oc1cccc2ccccc12)c1cccs1 as listed: active: 18.7 µM	inconclusive: 18.7 µM [cytotoxic, partial curve, poor fit]	inconclusive: 18.7 µM [cytotoxic, partial curve]	active: 0.59 µM	–	inconclusive: 13.2 µM [cytotoxic, partial curve]	–	active: 2.35 µM	–
